Test results reported in publication PMC5021921.
These are yes or no findings as the source states them, for the method shown. Binding seen in cells or lysates may run through a third protein.

Protein sequences, listed by entry. Tags and fused reporters are not part of them.
UniProt Q09472: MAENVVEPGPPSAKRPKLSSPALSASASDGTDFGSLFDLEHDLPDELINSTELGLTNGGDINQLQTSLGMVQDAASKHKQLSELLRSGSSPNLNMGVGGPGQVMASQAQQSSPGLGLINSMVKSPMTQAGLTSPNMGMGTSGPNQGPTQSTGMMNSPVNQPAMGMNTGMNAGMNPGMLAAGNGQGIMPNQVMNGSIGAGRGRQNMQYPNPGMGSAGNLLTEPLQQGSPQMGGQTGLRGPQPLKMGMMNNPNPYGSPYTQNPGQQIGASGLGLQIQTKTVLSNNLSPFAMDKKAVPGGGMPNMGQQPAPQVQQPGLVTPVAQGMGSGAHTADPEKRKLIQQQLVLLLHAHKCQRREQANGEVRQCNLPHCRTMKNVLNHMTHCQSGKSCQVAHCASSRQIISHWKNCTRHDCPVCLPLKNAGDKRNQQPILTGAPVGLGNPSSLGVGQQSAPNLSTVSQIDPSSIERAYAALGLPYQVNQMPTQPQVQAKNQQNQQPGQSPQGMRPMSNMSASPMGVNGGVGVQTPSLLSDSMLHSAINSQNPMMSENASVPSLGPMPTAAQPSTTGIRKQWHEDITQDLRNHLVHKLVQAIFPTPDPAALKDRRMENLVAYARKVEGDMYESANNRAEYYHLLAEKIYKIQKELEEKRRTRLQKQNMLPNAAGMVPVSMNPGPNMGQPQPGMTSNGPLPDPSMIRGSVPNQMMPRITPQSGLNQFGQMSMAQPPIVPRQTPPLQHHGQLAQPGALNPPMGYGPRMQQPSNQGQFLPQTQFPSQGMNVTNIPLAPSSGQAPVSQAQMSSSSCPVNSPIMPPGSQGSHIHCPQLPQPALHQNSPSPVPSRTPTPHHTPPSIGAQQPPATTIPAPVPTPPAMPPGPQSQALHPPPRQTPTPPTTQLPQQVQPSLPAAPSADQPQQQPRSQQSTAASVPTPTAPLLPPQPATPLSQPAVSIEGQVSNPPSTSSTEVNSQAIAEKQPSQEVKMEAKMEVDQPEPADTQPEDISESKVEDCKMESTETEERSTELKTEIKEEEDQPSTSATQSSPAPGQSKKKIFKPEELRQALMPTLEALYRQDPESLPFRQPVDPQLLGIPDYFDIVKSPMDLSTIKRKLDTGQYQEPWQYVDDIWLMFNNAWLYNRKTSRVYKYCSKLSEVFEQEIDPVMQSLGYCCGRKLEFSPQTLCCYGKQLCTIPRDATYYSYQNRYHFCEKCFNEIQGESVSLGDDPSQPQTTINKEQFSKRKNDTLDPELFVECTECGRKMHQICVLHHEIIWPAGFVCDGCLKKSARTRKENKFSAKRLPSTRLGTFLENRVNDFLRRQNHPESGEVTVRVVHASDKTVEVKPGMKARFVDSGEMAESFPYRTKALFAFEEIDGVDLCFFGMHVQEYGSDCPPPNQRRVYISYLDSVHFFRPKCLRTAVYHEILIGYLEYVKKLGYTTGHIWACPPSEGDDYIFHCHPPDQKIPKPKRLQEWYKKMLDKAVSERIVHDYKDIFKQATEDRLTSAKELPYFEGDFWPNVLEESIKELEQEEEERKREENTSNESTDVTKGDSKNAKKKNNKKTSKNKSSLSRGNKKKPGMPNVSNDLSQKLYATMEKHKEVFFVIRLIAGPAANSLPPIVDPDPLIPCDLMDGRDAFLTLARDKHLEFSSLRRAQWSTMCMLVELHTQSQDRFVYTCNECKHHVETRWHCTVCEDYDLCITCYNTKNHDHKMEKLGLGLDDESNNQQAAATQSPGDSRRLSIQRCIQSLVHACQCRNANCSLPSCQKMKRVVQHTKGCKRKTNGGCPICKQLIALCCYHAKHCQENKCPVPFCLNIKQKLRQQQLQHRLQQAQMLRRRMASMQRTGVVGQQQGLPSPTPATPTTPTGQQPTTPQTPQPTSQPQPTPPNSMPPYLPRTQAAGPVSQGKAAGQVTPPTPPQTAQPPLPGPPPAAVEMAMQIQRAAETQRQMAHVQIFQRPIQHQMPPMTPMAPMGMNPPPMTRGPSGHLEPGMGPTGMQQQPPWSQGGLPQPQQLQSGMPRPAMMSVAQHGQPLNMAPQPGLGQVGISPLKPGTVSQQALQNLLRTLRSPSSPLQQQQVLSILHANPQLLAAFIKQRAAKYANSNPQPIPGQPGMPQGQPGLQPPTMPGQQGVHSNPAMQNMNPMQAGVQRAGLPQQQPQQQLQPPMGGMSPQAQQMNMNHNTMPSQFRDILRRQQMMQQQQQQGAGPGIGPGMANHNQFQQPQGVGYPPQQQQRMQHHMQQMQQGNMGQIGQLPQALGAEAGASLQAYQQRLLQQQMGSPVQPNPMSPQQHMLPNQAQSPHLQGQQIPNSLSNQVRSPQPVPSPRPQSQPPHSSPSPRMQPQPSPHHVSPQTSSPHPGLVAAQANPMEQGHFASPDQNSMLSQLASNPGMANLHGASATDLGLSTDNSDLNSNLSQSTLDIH
UniProt Q02080: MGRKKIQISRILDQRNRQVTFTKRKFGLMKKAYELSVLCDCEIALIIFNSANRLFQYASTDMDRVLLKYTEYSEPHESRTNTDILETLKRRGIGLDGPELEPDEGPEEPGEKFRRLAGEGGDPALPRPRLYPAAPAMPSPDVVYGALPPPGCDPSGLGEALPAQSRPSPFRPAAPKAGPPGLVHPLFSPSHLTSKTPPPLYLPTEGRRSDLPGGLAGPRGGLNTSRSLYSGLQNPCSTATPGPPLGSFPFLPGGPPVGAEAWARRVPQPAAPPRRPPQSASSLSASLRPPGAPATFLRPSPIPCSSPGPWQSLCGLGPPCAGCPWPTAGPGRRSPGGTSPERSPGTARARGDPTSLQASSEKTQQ

Molecular target: HA-p300 (UniProt Q09472)
Test: co-IP; HeLa cells transfected with HA-p300, treated with 100 ng/ml EGF for 3 h; lysates immunoprecipitated with agarose-conjugated anti-HA antibody, Western blot with anti-MEF2B

Substance: myocyte enhancer factor 2B (MEF2B) (from UniProt Q02080 1-365)
- binding: no binding
